We go through two molecules from patent US20240317882A1.

The chains behind the UniProt entries cited, without tags or fusion partners. Residues count along the entry.
UniProt P14209, residues 23-122: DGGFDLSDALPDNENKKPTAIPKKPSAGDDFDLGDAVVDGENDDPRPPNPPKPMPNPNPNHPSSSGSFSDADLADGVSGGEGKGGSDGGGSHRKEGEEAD

No constants are given. Whether binding was seen depends on the method and setting. Some entries that bind do so weakly or less than the wild type.

The assay has as its target extracellular domain of CD99 (UniProt P14209). The assay can be described thus: surface plasmon resonance (BiacoreX).

B1: C4 anti-CD99 scFv (soluble) (scFv)
scFv: EVQLQQSGAELVKPGASVKLSCTASGFDIKDTYIHWVKQRPEQGLEWIGRIDPANGDTRYDPEFQGKASLTADTSSNTAYLQFSNLTSEDTAVYYCARRGGLSWGQGTTLTVSSGGGGSGGGGSGGGGSDIQMTQSPASLSASVGETVTITCRASGNIHNYLAWYQQKQGKSPQLLVYNAKTLADGVPSRFSGSGSGTQYSLKINSLQPEDFGSYYCQHFWSTPWTFGGGTKLEIK
For B1, the binding result is “binds”.

B2: C3 anti-CD99 scFv (soluble) (scFv)
scFv: QVQLVQSGAEVKKPGASVKVSCKASGFNIKDTYIHWVRQAPGQGLEWMGRIDPANGNTKYDPKFQGRVTMTRDTSISTAYMELSRLRSDDTAVYYCARRGGVDWGQGTLVTVSSGGGGSGGGGSGGGGSDIVMTQTPLSLSVTPGQPASISCKSSQSLLDGDGKTYLNWLLQKPGQSPQRLIYLVSKLDSGVPDRFSGSGSGTDFTLKISRVEAEDVGVYYCWQGTHFPRTFGQGTKLEIK
Consider B2, for which the binding result was “binds”.
